Earlier results in US20230226003A1, “NATURAL ANTIBACTERIAL AND ANTIVIRAL BIOLOGICAL COMPOSITIONS, COMPOUNDS, METHOD FOR OBTAINING SAME, AND USE THEREOF” (BEEOTEC HOLDING S/A, priority 2020, published 2023).
Some entries share one result that the patent states for a list of compounds.

System: yeast
Conditions: cachaça production; masters research 2010; cited from earlier work

For `CC1(C)S[C@@H]2[C@H](NC(=O)[C@H](N)c3ccccc3)C(=O)N2[C@H]1C(=O)O` [ampicillin], the “yeast cell viability indexes” value is listed as “above 90%”.
